Assay results: patent US4994554A, “Probursin” (Immunobiology Research Institute, Inc., priority 1988, dated 1991)
Part of at least one peptide drawing is inferred or uncertain, most often the ends. Where a SMILES comes first, the peptide text is derived from it.

Assays:
MOPC-315 cells = experiment: Cyclic GMP assay in MOPC-315 cells; format: cell-based; settings: 0 to 1000 micrograms/ml, FIG. 5B
Daudi cells = experiment: Cyclic GMP assay in Daudi cells; format: cell-based; settings: 0 to 1000 micrograms/ml, FIG. 5A
Experimental: Daudi cells were freshly seeded and grown for 2 days with harvesting as described in T. Audhya et al, Arch. Biochem Biophys., 234:167-177 (1984). The cells were washed 3 times in PBS and resuspended in RPMI 1640 at a concentration of 1.0×10^7 cells/ml and were allowed to equilibrate at 37° C. for 30 minutes before the addition of the test compounds (25 ul) of bursin and probursin, and control peptides porcine insulin (A), equine myoglobin (B) and bovine growth hormone (C). The incubation was allowed to proceed in a shaking water bath for 4-5 minutes and was then terminated by addition of 1 ml ice-cold TCA (10%).
The cells in TCA were homogenized and sonicated to release cyclic nucleotide. The suspension was centrifuged at 3000×g for 20 minutes at 4° C. The resulting precipitate was dissolved in 0.1 N NaOH to determine the protein content. TCA was removed from the supernatant fraction by extracting 4 times with 5 ml of water-saturated diethyl ether. […]
Dose-response curves from 0 to 1000 micrograms/ml were evaluated for bursin, probursin and controls. […] A threshold activity was determined for each peptide tested. […] Test results were considered positive if the level of cyclic GMP was greater than 1.52 times (2 standard deviations) that determined for the parallel negative control.

Structure (SMILES): NCCCC[C@H](N)C(=O)N[C@@H](Cc1c[nH]cn1)C(=O)NCC(N)=O [bursin, Lys-His-Gly-NH2] (H-Lys-His-Gly-NH2)
- induction of intracellular cyclic GMP (dose-response) (MOPC-315 cells): active
- induction of intracellular cyclic GMP (dose-response) (Daudi cells): active
